These are yes or no findings as the source states them, for the method shown. In cells and extracts the contact can be indirect. Some binding calls cover weakened binding; strength is not graded here. For part of these data: Tags and fused reporters may be left off the sequences shown.
Legend:
Experiment in all cases: co-IP
[1] = molecular target: SARS-CoV N-HA (HEK293T) (SARS-CoV) (UniProt P59595)
SII-HA-UNC93B1 = molecular target: T1, SII-HA-UNC93B1 (UniProt Q9H1C4)
T1 sequence: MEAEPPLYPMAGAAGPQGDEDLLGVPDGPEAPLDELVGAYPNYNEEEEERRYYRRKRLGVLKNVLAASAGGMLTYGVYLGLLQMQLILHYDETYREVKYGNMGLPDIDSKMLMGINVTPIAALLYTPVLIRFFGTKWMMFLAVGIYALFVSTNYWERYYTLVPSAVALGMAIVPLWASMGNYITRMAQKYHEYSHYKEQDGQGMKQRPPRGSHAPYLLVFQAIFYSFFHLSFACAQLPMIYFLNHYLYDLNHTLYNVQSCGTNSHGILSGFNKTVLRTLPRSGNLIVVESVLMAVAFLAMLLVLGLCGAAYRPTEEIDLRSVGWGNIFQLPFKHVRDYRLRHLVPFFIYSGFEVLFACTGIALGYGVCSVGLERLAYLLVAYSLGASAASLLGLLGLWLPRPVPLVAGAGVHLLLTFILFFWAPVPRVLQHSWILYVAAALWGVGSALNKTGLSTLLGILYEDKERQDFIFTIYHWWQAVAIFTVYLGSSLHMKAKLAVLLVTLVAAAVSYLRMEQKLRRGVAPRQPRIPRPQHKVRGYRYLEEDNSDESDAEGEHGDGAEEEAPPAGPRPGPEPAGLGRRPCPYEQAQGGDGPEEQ

Sequences of proteins named here, by UniProt entry; tags and fusion partners are left off.
UniProt P0DMV8, whole entry: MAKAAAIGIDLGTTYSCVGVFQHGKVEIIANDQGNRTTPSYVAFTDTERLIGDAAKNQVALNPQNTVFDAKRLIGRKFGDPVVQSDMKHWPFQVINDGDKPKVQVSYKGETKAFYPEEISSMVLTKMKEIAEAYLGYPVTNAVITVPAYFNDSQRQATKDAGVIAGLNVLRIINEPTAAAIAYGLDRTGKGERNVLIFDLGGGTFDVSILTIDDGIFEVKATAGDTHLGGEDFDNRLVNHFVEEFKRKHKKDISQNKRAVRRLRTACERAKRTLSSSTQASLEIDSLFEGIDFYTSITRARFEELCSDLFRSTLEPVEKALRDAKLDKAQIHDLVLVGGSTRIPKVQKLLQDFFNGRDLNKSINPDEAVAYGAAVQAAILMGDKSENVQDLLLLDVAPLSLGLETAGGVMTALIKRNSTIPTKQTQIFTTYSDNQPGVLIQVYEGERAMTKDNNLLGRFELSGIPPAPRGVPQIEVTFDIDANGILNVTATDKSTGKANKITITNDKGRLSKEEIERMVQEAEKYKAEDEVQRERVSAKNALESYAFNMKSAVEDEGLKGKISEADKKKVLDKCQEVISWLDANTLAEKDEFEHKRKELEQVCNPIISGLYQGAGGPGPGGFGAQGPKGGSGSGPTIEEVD
UniProt Q7Z434, whole entry: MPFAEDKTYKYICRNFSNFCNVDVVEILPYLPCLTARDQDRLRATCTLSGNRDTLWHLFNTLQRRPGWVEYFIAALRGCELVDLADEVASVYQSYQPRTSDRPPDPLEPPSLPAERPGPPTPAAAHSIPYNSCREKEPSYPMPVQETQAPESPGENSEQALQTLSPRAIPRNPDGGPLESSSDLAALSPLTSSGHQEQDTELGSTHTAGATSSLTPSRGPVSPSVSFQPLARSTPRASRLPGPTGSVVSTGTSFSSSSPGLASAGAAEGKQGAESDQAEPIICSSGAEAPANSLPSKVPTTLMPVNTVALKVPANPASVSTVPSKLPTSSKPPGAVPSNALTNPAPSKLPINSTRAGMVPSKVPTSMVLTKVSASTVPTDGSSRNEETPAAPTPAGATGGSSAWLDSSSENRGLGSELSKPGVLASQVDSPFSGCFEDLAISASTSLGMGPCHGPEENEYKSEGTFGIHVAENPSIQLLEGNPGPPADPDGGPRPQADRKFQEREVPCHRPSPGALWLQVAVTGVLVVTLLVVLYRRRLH

[2] = molecular target: SARS-CoV-2 ORF7b-HA (HEK293T) (SARS-CoV-2) (UniProt P0DTD8)

Which binding [1] does the source give for “HSPA1A (endogenous, HEK293T) (from UniProt P0DMV8 1-641)” here?
The binding was “binds”.

“SARS-CoV-2 ORF7b-HA (HEK293T) (from UniProt P0DTD8 1-43)” was tested. Which binding (SII-HA-UNC93B1) did it give?
The binding was “binds”.

With “MAVS (endogenous, HEK293T) (from UniProt Q7Z434 1-540)” as the substance, how does the binding [2] read?
Its binding is “binds”.
